Measurements published in the M2OR odorant receptor database.
Residue numbers refer to the chain shown, from its start. This is a selection; strong and weak results do not stand in their true shares. Calls are pooled over several reports, among them a noisy single-well screen. The list shows a part of the results.

Chains of the proteins cited; added tags and fusions are not shown. Chains listed by the source or under a name are the forms on record and can include a tag or linker.
OR2C1, as listed by the source: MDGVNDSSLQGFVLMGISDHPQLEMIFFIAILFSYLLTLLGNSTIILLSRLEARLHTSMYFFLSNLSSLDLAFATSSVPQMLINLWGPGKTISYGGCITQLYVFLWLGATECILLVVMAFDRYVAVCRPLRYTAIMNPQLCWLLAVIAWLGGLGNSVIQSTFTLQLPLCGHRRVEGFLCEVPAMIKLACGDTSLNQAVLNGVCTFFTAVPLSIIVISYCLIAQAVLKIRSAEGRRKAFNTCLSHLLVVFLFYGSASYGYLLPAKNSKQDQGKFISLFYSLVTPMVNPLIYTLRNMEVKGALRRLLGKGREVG

Columns and labels:
Settings in all cases: stereoisomer not certain
OR2AG1 (Homo sapiens) = molecular target: T1, OR2AG1 (Homo sapiens) (UniProt Q9H205)
T1 sequence (whole entry): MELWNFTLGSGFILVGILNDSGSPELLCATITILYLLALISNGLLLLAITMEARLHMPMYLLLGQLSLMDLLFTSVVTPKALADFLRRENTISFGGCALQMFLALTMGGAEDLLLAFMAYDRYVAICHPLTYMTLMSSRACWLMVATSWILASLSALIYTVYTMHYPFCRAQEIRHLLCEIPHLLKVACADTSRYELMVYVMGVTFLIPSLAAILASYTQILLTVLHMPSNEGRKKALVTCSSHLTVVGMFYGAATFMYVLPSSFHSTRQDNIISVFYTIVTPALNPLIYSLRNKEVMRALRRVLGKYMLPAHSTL
Method in brief: (§1)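 Values were gathered from published papers (main text and supplementary material), with extra details requested from the original authors when needed, and checked for typos and inconsistencies. Each receptor–molecule pair is called responsive (active) if the original authors judged the measured signal statistically different from baseline, and non-responsive (inactive) otherwise. Assay methods varied by source, often transient mammalian cell-line luciferase assays. Recorded details include cell line, G-protein, co-transfected protein and tags.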

OR2AG2 (Homo sapiens) = molecular target: T2, OR2AG2 (Homo sapiens) (UniProt A6NM03)
T2 sequence (whole entry): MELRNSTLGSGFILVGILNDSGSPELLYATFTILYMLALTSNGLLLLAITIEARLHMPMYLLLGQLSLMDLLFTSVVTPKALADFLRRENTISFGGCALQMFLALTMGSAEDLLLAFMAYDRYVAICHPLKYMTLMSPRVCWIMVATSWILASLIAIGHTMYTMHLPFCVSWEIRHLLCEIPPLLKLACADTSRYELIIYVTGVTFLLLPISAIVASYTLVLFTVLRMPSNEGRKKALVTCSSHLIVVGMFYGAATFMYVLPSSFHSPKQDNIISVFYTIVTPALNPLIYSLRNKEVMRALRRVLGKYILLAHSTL
Method in brief: as §1

OR2AP1 (Homo sapiens) = molecular target: T3, OR2AP1 (Homo sapiens) (UniProt Q8NGE2)
T3 sequence (whole entry): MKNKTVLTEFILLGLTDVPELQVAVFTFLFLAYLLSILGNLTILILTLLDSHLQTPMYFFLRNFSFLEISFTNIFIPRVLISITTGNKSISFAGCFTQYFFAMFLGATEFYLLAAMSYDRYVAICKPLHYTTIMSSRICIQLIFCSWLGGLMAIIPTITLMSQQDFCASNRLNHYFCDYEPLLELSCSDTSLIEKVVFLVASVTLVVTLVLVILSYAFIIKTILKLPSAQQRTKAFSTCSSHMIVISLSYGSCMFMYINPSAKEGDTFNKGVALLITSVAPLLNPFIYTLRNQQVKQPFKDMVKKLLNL
Method in brief: as §1

OR2AT4 (Homo sapiens) = molecular target: T4, OR2AT4 (Homo sapiens) (UniProt A6NND4)
T4 sequence (whole entry): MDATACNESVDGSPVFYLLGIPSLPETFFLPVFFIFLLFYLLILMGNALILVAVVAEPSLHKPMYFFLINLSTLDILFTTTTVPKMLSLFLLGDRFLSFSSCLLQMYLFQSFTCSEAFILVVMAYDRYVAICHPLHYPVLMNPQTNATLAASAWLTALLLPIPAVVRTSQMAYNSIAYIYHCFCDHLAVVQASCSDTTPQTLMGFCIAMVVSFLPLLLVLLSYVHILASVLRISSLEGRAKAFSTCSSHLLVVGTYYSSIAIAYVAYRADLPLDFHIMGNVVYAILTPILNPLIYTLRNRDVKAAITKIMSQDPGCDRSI
Method in brief: as §1

OR2B11 (Homo sapiens) = molecular target: T5, OR2B11 (Homo sapiens) (UniProt Q5JQS5)
T5 sequence (whole entry): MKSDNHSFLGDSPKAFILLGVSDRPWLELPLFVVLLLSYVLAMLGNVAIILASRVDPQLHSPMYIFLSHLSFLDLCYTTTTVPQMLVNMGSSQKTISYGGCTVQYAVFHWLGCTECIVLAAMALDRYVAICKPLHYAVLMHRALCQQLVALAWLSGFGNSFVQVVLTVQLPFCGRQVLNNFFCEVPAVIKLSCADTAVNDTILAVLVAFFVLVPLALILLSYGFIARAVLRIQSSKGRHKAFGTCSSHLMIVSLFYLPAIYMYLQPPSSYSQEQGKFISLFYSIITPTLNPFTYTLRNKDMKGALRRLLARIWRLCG
Method in brief: as §1

OR2B2 (Homo sapiens) = molecular target: T6, OR2B2 (Homo sapiens) (UniProt Q9GZK3)
T6 sequence (whole entry): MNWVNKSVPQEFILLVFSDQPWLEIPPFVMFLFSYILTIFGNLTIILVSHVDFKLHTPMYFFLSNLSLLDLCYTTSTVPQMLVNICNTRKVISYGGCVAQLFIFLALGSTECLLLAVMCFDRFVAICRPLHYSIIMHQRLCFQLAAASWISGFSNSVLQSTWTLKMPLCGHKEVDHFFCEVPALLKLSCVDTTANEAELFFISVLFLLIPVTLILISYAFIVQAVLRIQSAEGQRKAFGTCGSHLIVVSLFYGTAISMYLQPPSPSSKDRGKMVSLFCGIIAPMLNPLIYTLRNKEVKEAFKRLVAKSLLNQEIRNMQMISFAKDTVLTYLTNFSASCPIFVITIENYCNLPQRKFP
Method in brief: as §1

OR2B3 (Homo sapiens) = molecular target: T7, OR2B3 (Homo sapiens) (UniProt O76000)
T7 sequence (whole entry): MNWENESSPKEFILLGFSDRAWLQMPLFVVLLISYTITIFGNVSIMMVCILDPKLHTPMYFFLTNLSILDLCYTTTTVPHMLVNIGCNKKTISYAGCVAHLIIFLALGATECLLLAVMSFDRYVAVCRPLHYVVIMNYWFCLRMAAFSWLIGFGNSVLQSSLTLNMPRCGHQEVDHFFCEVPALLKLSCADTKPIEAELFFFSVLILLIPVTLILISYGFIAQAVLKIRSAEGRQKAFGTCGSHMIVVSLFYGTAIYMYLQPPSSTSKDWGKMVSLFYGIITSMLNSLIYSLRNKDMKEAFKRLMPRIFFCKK
Method in brief: as §1

OR2B6 (Homo sapiens) = molecular target: T8, OR2B6 (Homo sapiens) (UniProt P58173)
T8 sequence (whole entry): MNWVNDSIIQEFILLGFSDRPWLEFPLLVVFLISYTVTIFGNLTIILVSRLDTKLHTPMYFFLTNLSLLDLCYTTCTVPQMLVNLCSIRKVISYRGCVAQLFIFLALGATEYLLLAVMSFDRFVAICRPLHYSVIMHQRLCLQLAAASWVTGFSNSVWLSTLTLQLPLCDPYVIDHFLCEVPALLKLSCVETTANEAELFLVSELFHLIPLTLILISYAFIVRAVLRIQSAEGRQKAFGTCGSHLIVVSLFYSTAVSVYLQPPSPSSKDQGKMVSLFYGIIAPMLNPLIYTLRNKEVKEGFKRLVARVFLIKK
Method in brief: as §1

OR2B8 = tested on: T9, OR2B8
T9 sequence (whole entry): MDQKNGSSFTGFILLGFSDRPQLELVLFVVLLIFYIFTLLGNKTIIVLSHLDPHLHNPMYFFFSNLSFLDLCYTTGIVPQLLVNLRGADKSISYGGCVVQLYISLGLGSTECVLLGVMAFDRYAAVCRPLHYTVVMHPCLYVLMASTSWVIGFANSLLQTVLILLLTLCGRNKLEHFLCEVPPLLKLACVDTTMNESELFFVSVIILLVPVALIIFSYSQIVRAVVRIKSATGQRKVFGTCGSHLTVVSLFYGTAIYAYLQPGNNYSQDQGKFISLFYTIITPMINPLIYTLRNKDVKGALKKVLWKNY
Method in brief: as §1

OR2C1 [1] = tested on: T10, OR2C1
T10 sequence (whole entry): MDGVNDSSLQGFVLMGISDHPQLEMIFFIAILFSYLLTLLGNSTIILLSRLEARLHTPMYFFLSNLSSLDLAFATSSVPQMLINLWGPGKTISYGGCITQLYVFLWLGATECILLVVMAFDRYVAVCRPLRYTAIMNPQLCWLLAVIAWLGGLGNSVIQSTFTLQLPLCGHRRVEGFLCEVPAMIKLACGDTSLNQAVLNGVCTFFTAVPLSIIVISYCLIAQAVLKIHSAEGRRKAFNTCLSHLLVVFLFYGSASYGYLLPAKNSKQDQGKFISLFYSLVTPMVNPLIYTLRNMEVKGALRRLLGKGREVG
Method in brief: as §1

OR2C1 [2] = tested on: T11, OR2C1; remark: listed apart in the source
T11 sequence (whole entry): T10 sequence (whole entry) with H229R
Method in brief: as §1

OR2C1 [3] = tested on: T12, OR2C1; remark: listed apart in the source
T12 sequence (whole entry): T10 sequence (whole entry) with P58S, H229R
Method in brief: as §1

OR2C1 [4] = tested on: T13, OR2C1; remark: listed apart in the source
T13 sequence (whole entry): T10 sequence (whole entry) with G16S
Method in brief: as §1

OR2C1 [5] = tested on: T14, OR2C1; remark: listed apart in the source
T14 sequence (whole entry): T10 sequence (whole entry) with G16S, H229R
Method in brief: as §1

OR2C1 [6] = tested on: OR2C1; remark: listed apart in the source
Method in brief: as §1

OR2C1 (Homo sapiens) = molecular target: T15, OR2C1 (Homo sapiens) (UniProt O95371)
T15 sequence (whole entry): T10 sequence (whole entry) with W149C, H229R
Method in brief: as §1

Measured: odorant receptor agonist call

CC(=O)OC(C)(C)C1CC=C(C)CC1 (stereo not given)
not listed: OR2C1 [6] | OR2C1 (Homo sapiens)
inactive: all other assays above

CC(C)C=O
not listed: OR2C1 [6] | OR2C1 (Homo sapiens)
inactive: all other assays above

COc1cc(C=O)ccc1O
not listed: OR2C1 [6] | OR2C1 (Homo sapiens)
inactive: all other assays above

CC12C=CCC1C1CCC3=CC(=O)CCC3(C)C1CC2 (stereo not given)
not listed: OR2C1 [6] | OR2C1 (Homo sapiens)
inactive: all other assays above

O=CCc1ccccc1
active: OR2C1 [2] | OR2C1 [6]
not listed: OR2C1 (Homo sapiens)
inactive: all other assays above

CCCCCOC(C)=O
active: OR2B3 (Homo sapiens)
not listed: OR2C1 [6] | OR2C1 (Homo sapiens)
inactive: all other assays above

CC(C)(O)CCCC1=CCC(C=O)CC1 (stereo not given)
inactive: OR2C1 (Homo sapiens)

CC12CCC(CC1)C(C)(C)O2
not listed: OR2C1 [6] | OR2C1 (Homo sapiens)
inactive: all other assays above

CC(C)CC(=O)O
not listed: OR2C1 [6] | OR2C1 (Homo sapiens)
inactive: all other assays above

CC1CCC(C(C)C)C(O)C1 (stereo not given)
active: OR2AG2 (Homo sapiens) | OR2B2 (Homo sapiens) | OR2C1 [2] | OR2C1 [3]
not listed: OR2C1 [6] | OR2C1 (Homo sapiens)
inactive: all other assays above

CCCCCCOC(=O)CCC
not listed: OR2C1 [6] | OR2C1 (Homo sapiens)
inactive: all other assays above

O=C1CCCCCCCCCCCC(=O)OCCO1
not listed: OR2C1 [6] | OR2C1 (Homo sapiens)
inactive: all other assays above

CC(=O)OC1CC2CCC1(C)C2(C)C (stereo not given)
not listed: OR2C1 [6] | OR2C1 (Homo sapiens)
inactive: all other assays above

CCCCCCCCC=O
inactive: OR2C1 (Homo sapiens)

C=C(C)C1CC=C(C)C(=O)C1 (stereo not given)
inactive: OR2C1 (Homo sapiens)

C=CCc1ccc(OC)c(OC)c1
active: OR2C1 [2]
not listed: OR2C1 [6] | OR2C1 (Homo sapiens)
inactive: all other assays above

COc1cc(C)ccc1O
active: OR2C1 [3] | OR2C1 [4]
not listed: OR2C1 [6] | OR2C1 (Homo sapiens)
inactive: all other assays above

c1ccc(Oc2ccccc2)cc1
not listed: OR2C1 [6] | OR2C1 (Homo sapiens)
inactive: all other assays above

C=CCc1ccc(OC(C)=O)c(OC)c1
not listed: OR2B3 (Homo sapiens) | OR2C1 [6] | OR2C1 (Homo sapiens)
inactive: all other assays above

CC(C)(C)c1ccc(CCC=O)cc1
not listed: OR2C1 [6] | OR2C1 (Homo sapiens)
inactive: all other assays above

COC(=O)c1ccccc1
active: OR2B3 (Homo sapiens) | OR2B8
not listed: OR2C1 [6] | OR2C1 (Homo sapiens)
inactive: all other assays above

CC(C)CCC(=O)O
active: OR2C1 [3]
not listed: OR2C1 [6] | OR2C1 (Homo sapiens)
inactive: all other assays above

CCCC(=O)O
not listed: OR2C1 [6] | OR2C1 (Homo sapiens)
inactive: all other assays above

CCCCCCCCCCC=O
not listed: OR2C1 [6] | OR2C1 (Homo sapiens)
inactive: all other assays above

CCC=CCCO
not listed: OR2C1 [6] | OR2C1 (Homo sapiens)
inactive: all other assays above

c1cnccn1
not listed: OR2C1 [6] | OR2C1 (Homo sapiens)
inactive: all other assays above

O=C1CCCCCCCCCCCCCCO1
not listed: OR2C1 [6] | OR2C1 (Homo sapiens)
inactive: all other assays above

CCCCCCC=O
inactive: OR2AG1 (Homo sapiens) | OR2C1 (Homo sapiens)

CCCCO
not listed: OR2C1 [6] | OR2C1 (Homo sapiens)
inactive: all other assays above
